# Reference: the supplement of paper PMC11438910
# The list shows a part of the results. Most of these values are background signal.
# B1: 3S41.1 (protein)
# chain 1: EVQLVESGGGLVQPGGSLRLSCATSGFTFRNYWMYWFRQAPGKGLDWVSSISDSSSNTFYSDSVKGRFTISRDNAKNTLYLQMNSLRAEDTAVYYCARRPIAAATGVYWYFDLWGPGTPITVSS
# chain 2: EIVMTQSPATLSLSPGERATLSCRASQNIGSNLAWYQQKPGRAPKLLIYDASSRATGIPDRFSASGSGTDFTLTISSLEPEDVGVYYCQQYNNWKIFGPGTKLEIK
# What was measured:
# Test in all cases: fluorescence intensity of antibody binding to polysaccharide-coupled beads; higher = stronger binding
# [1] = molecular target: pneumococcal polysaccharide Pn3
# [2] = molecular target: pneumococcal polysaccharide Pn31
# [3] = molecular target: pneumococcal polysaccharide Pn32A
# [4] = molecular target: pneumococcal polysaccharide Pn32F
# [5] = molecular target: pneumococcal polysaccharide Pn33A
# [6] = molecular target: pneumococcal polysaccharide Pn33B
# [7] = molecular target: pneumococcal polysaccharide Pn33C
# [8] = molecular target: pneumococcal polysaccharide Pn33D
# [9] = molecular target: pneumococcal polysaccharide Pn33F
# [10] = molecular target: pneumococcal polysaccharide Pn34
# [11] = molecular target: pneumococcal polysaccharide Pn35A
# [12] = molecular target: pneumococcal polysaccharide Pn35B
# [13] = molecular target: pneumococcal polysaccharide Pn35C
# [14] = molecular target: pneumococcal polysaccharide Pn35F
# [15] = molecular target: pneumococcal polysaccharide Pn36
# [16] = molecular target: pneumococcal polysaccharide Pn37
# [17] = molecular target: pneumococcal polysaccharide Pn38
# [18] = molecular target: pneumococcal polysaccharide Pn39
# [19] = molecular target: pneumococcal polysaccharide Pn4
# [20] = molecular target: pneumococcal polysaccharide Pn40
# [21] = molecular target: pneumococcal polysaccharide Pn41A
# [22] = molecular target: pneumococcal polysaccharide Pn41F
# [23] = molecular target: pneumococcal polysaccharide Pn42
# [24] = molecular target: pneumococcal polysaccharide Pn43
# [25] = molecular target: pneumococcal polysaccharide Pn44
# [26] = molecular target: pneumococcal polysaccharide Pn45
# [27] = molecular target: pneumococcal polysaccharide Pn46; settings: antibody concentration 0.1 ng/mL
# [28] = antibody concentration 15.2894 ng/mL
# [29] = antibody concentration 81.7561 ng/mL
# [30] = antibody concentration 437.17 ng/mL
# [31] = antibody concentration 2337.65 ng/mL
# [32] = antibody concentration 0.1 ng/mL
# [33] = antibody concentration 0.534724 ng/mL
# [34] = antibody concentration 2.8593 ng/mL
binder,measurement,setting,value
B1,fluorescence intensity,[1]; [28],15.5 MFI
same,fluorescence intensity,[1]; [29],14.2 MFI
same,fluorescence intensity,[1]; [30],15 MFI
same,fluorescence intensity,[1]; [31],27.5 MFI
same,fluorescence intensity,[2]; [32],15.5 MFI
same,fluorescence intensity,[2]; [33],15.5 MFI
same,fluorescence intensity,[2]; [34],13.8 MFI
same,fluorescence intensity,[2]; [28],14 MFI
same,fluorescence intensity,[2]; [29],14.5 MFI
same,fluorescence intensity,[2]; [30],14.5 MFI
same,fluorescence intensity,[2]; [31],18.5 MFI
same,fluorescence intensity,[3]; [32],18 MFI
same,fluorescence intensity,[3]; [33],17.5 MFI
same,fluorescence intensity,[3]; [34],18 MFI
same,fluorescence intensity,[3]; [28],18.5 MFI
same,fluorescence intensity,[3]; [29],16.5 MFI
same,fluorescence intensity,[3]; [30],18.8 MFI
same,fluorescence intensity,[3]; [31],20.5 MFI
same,fluorescence intensity,[4]; [32],29.8 MFI
same,fluorescence intensity,[4]; [33],29.2 MFI
same,fluorescence intensity,[4]; [34],29.5 MFI
same,fluorescence intensity,[4]; [28],27.5 MFI
same,fluorescence intensity,[4]; [29],28.5 MFI
same,fluorescence intensity,[4]; [30],28.5 MFI
same,fluorescence intensity,[4]; [31],33.5 MFI
same,fluorescence intensity,[5]; [32],17.8 MFI
same,fluorescence intensity,[5]; [33],18 MFI
same,fluorescence intensity,[5]; [34],18 MFI
same,fluorescence intensity,[5]; [28],16.5 MFI
same,fluorescence intensity,[5]; [29],17 MFI
same,fluorescence intensity,[5]; [30],20.5 MFI
same,fluorescence intensity,[5]; [31],33 MFI
same,fluorescence intensity,[6]; [32],17.5 MFI
same,fluorescence intensity,[6]; [33],18.5 MFI
same,fluorescence intensity,[6]; [34],18.5 MFI
same,fluorescence intensity,[6]; [28],17 MFI
same,fluorescence intensity,[6]; [29],18.5 MFI
same,fluorescence intensity,[6]; [30],17 MFI
same,fluorescence intensity,[6]; [31],19 MFI
same,fluorescence intensity,[7]; [32],20 MFI
same,fluorescence intensity,[7]; [33],20.8 MFI
same,fluorescence intensity,[7]; [34],20 MFI
same,fluorescence intensity,[7]; [28],20 MFI
same,fluorescence intensity,[7]; [29],20 MFI
same,fluorescence intensity,[7]; [30],18 MFI
same,fluorescence intensity,[7]; [31],21 MFI
same,fluorescence intensity,[8]; [32],17.5 MFI
same,fluorescence intensity,[8]; [33],16.5 MFI
same,fluorescence intensity,[8]; [34],15 MFI
same,fluorescence intensity,[8]; [28],17 MFI
same,fluorescence intensity,[8]; [29],17.2 MFI
same,fluorescence intensity,[8]; [30],16.2 MFI
same,fluorescence intensity,[8]; [31],17 MFI
same,fluorescence intensity,[9]; [32],13.5 MFI
same,fluorescence intensity,[9]; [33],14 MFI
same,fluorescence intensity,[9]; [34],12.2 MFI
same,fluorescence intensity,[9]; [28],14 MFI
same,fluorescence intensity,[9]; [29],13 MFI
same,fluorescence intensity,[9]; [30],15.8 MFI
same,fluorescence intensity,[9]; [31],21.2 MFI
same,fluorescence intensity,[10]; [32],14.5 MFI
same,fluorescence intensity,[10]; [33],14 MFI
same,fluorescence intensity,[10]; [34],14 MFI
same,fluorescence intensity,[10]; [28],16.8 MFI
same,fluorescence intensity,[10]; [29],14.5 MFI
same,fluorescence intensity,[10]; [30],13.5 MFI
same,fluorescence intensity,[10]; [31],16 MFI
same,fluorescence intensity,[11]; [32],17 MFI
same,fluorescence intensity,[11]; [33],16 MFI
same,fluorescence intensity,[11]; [34],16.8 MFI
same,fluorescence intensity,[11]; [28],15 MFI
same,fluorescence intensity,[11]; [29],16.5 MFI
same,fluorescence intensity,[11]; [30],17.5 MFI
same,fluorescence intensity,[11]; [31],19 MFI
same,fluorescence intensity,[12]; [32],18.2 MFI
same,fluorescence intensity,[12]; [33],18 MFI
same,fluorescence intensity,[12]; [34],16 MFI
same,fluorescence intensity,[12]; [28],17.5 MFI
same,fluorescence intensity,[12]; [29],18.8 MFI
same,fluorescence intensity,[12]; [30],17.2 MFI
same,fluorescence intensity,[12]; [31],21 MFI
same,fluorescence intensity,[13]; [32],20.5 MFI
same,fluorescence intensity,[13]; [33],20 MFI
same,fluorescence intensity,[13]; [34],20 MFI
same,fluorescence intensity,[13]; [28],19 MFI
same,fluorescence intensity,[13]; [29],19.5 MFI
same,fluorescence intensity,[13]; [30],21 MFI
same,fluorescence intensity,[13]; [31],21 MFI
same,fluorescence intensity,[14]; [32],21.5 MFI
same,fluorescence intensity,[14]; [33],20.2 MFI
same,fluorescence intensity,[14]; [34],16.5 MFI
same,fluorescence intensity,[14]; [28],23.5 MFI
same,fluorescence intensity,[14]; [29],18 MFI
same,fluorescence intensity,[14]; [30],21.5 MFI
same,fluorescence intensity,[14]; [31],19.8 MFI
same,fluorescence intensity,[15]; [32],17 MFI
same,fluorescence intensity,[15]; [33],15.5 MFI
same,fluorescence intensity,[15]; [34],15.5 MFI
same,fluorescence intensity,[15]; [28],17 MFI
same,fluorescence intensity,[15]; [29],16.5 MFI
same,fluorescence intensity,[15]; [30],17 MFI
same,fluorescence intensity,[15]; [31],20 MFI
same,fluorescence intensity,[16]; [32],24.8 MFI
same,fluorescence intensity,[16]; [33],25 MFI
same,fluorescence intensity,[16]; [34],25 MFI
same,fluorescence intensity,[16]; [28],28 MFI
same,fluorescence intensity,[16]; [29],25.5 MFI
same,fluorescence intensity,[16]; [30],27.2 MFI
same,fluorescence intensity,[16]; [31],43.8 MFI
same,fluorescence intensity,[17]; [32],26.2 MFI
same,fluorescence intensity,[17]; [33],25.5 MFI
same,fluorescence intensity,[17]; [34],25.5 MFI
same,fluorescence intensity,[17]; [28],25 MFI
same,fluorescence intensity,[17]; [29],26.5 MFI
same,fluorescence intensity,[17]; [30],26.5 MFI
same,fluorescence intensity,[17]; [31],29 MFI
same,fluorescence intensity,[18]; [32],19.5 MFI
same,fluorescence intensity,[18]; [33],17.5 MFI
same,fluorescence intensity,[18]; [34],18.8 MFI
same,fluorescence intensity,[18]; [28],18 MFI
same,fluorescence intensity,[18]; [29],18.5 MFI
same,fluorescence intensity,[18]; [30],19 MFI
same,fluorescence intensity,[18]; [31],20.5 MFI
same,fluorescence intensity,[19]; [32],19.5 MFI
same,fluorescence intensity,[19]; [33],19 MFI
same,fluorescence intensity,[19]; [34],20.5 MFI
same,fluorescence intensity,[19]; [28],20 MFI
same,fluorescence intensity,[19]; [29],18.5 MFI
same,fluorescence intensity,[19]; [30],18.5 MFI
same,fluorescence intensity,[19]; [31],24 MFI
same,fluorescence intensity,[20]; [32],16.5 MFI
same,fluorescence intensity,[20]; [33],16 MFI
same,fluorescence intensity,[20]; [34],15.5 MFI
same,fluorescence intensity,[20]; [28],16.2 MFI
same,fluorescence intensity,[20]; [29],18.5 MFI
same,fluorescence intensity,[20]; [30],16.5 MFI
same,fluorescence intensity,[20]; [31],21 MFI
same,fluorescence intensity,[21]; [32],24.5 MFI
same,fluorescence intensity,[21]; [33],24 MFI
same,fluorescence intensity,[21]; [34],23 MFI
same,fluorescence intensity,[21]; [28],24 MFI
same,fluorescence intensity,[21]; [29],23.5 MFI
same,fluorescence intensity,[21]; [30],23.8 MFI
same,fluorescence intensity,[21]; [31],26.5 MFI
same,fluorescence intensity,[22]; [32],13.5 MFI
same,fluorescence intensity,[22]; [33],12.8 MFI
same,fluorescence intensity,[22]; [34],12.5 MFI
same,fluorescence intensity,[22]; [28],12.5 MFI
same,fluorescence intensity,[22]; [29],12.5 MFI
same,fluorescence intensity,[22]; [30],15 MFI
same,fluorescence intensity,[22]; [31],14.5 MFI
same,fluorescence intensity,[23]; [32],12 MFI
same,fluorescence intensity,[23]; [33],11 MFI
same,fluorescence intensity,[23]; [34],10.5 MFI
same,fluorescence intensity,[23]; [28],11.8 MFI
same,fluorescence intensity,[23]; [29],11.5 MFI
same,fluorescence intensity,[23]; [30],11 MFI
same,fluorescence intensity,[23]; [31],15 MFI
same,fluorescence intensity,[24]; [32],15.5 MFI
same,fluorescence intensity,[24]; [33],16 MFI
same,fluorescence intensity,[24]; [34],15 MFI
same,fluorescence intensity,[24]; [28],16 MFI
same,fluorescence intensity,[24]; [29],16 MFI
same,fluorescence intensity,[24]; [30],17.5 MFI
same,fluorescence intensity,[24]; [31],27 MFI
same,fluorescence intensity,[25]; [32],26 MFI
same,fluorescence intensity,[25]; [33],25.5 MFI
same,fluorescence intensity,[25]; [34],25 MFI
same,fluorescence intensity,[25]; [28],26 MFI
same,fluorescence intensity,[25]; [29],25 MFI
same,fluorescence intensity,[25]; [30],24.5 MFI
same,fluorescence intensity,[25]; [31],28 MFI
same,fluorescence intensity,[26]; [32],11.5 MFI
same,fluorescence intensity,[26]; [33],11 MFI
same,fluorescence intensity,[26]; [34],11.2 MFI
same,fluorescence intensity,[26]; [28],11 MFI
same,fluorescence intensity,[26]; [29],11 MFI
same,fluorescence intensity,[26]; [30],10 MFI
same,fluorescence intensity,[26]; [31],13 MFI
same,fluorescence intensity,[27],23 MFI
